{
  "source": "patent US11717517B2",
  "about": "“LSD dose identification” (Universitätsspital Basel, priority 2020, dated 2023)",
  "system": "healthy subjects",
  "assay": "Blinding: retrospective identification of the LSD dose condition",
  "format": "in vivo, human",
  "data": [
    {"smiles": "CCN(CC)C(=O)[C@@H]1C=C2c3cccc4[nH]cc(c34)C[C@H]2N(C)C1", "note": "[LSD, D-lysergic acid diethylamide base]", "values": [
      {"measurement": "retrospective dose identification", "setting": "dose of 25 μg", "result": "distinguished from placebo and identified correctly or as 50 μg LSD by most participants"},
      {"measurement": "retrospective dose identification", "setting": "doses of 100 μg and 200 μg", "result": "identified as high doses but could not be distinguished"}
    ]}
  ]
}
